Reference: the supplement of paper PMC4635364
Counter-ions that a name gives are not always drawn. The list shows a part of the results. Repeats in this data set agree poorly, so a single value says little.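 Human fetal ventral-midbrain neural progenitor line ReNCell VM, differentiated without mitogens. Images stained for doublecortin (early neurons) or tyrosine hydroxylase (dopaminergic neurons) were scored by blinded raters against untreated wells (0 = no change). Repeats and both raters were averaged, and compounds averaging 2 or higher were picked as hits for retesting.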 Where a SMILES comes first, the peptide text is derived from it. Bridges are numbered along the chain shown (N, C = ends). [ ]: non-standard residue; d: D form. The star is where a group is joined. Ileψ(thiazoline)Cys = CC[C@H](C)[C@H](N)C1=N[C@H](C(=O)*)CS1; dOrn = NCCC[C@@H](N)C(=O)O

System: ReNCell VM
Assay: dopaminergic neuron differentiation score (TH+ cell fraction vs untreated, manual image score) (score (0 to 3)); higher = more TH+ dopaminergic neuron differentiation
Details: library: LOPAC; 2 uM; 4 weeks; BDNF 10 ng/ml + GDNF 10 ng/ml

Dopaminergic neuron differentiation score, inactive:
NCCS [Cysteamine hydrochloride] 0
CCN(CC)CCNC(=O)c1ccc(NC(C)=O)cc1 [N-Acetylprocainamide hydrochloride] 0
NC(N)=NC(N)=Nc1ccccc1 [1-Phenylbiguanide] 0

Same assay, conditions: library: Prestwick; 2 uM; 4 weeks; BDNF 10 ng/ml + GDNF 10 ng/ml

Dopaminergic neuron differentiation score, inactive:
Nc1nc(=O)[nH]cc1F [Flucytosine] 0
CCN(CCCc1ccccc1)CCCc1ccccc1 [Alverine citrate salt] 0
Cc1nnc(SCC2=C(C(=O)O)N3C(=O)[C@@H](NC(=O)Cn4cnnn4)[C@H]3SC2)s1 [Cefazolin sodium salt] 0
CCN(CC)Cc1cc(Nc2ccnc3cc(Cl)ccc23)ccc1O [Amodiaquin dihydrochloride dihydrate] 0
CC(=O)O[C@H]1C(=O)[C@@]2(C)[C@H]([C@H](OC(=O)c3ccccc3)[C@]3(O)C[C@H](OC(=O)[C@H](O)[C@@H](NC(=O)c4ccccc4)c4ccccc4)C(C)=C1C3(C)C)[C@]1(OC(C)=O)CO[C@@H]1C[C@@H]2O [Paclitaxel] 0
CCN1CCCC(OC(=O)C(c2ccccc2)c2ccccc2)C1 (centres undefined) [Piperidolate hydrochloride] 0
CC[C@H](C)[C@H](N)C1=N[C@H](C(=O)N[C@@H](CC(C)C)C(=O)N[C@H](CCC(=O)O)C(=O)N[C@H](C(=O)N[C@H]2CCCCNC(=O)[C@H](CC(N)=O)NC(=O)[C@@H](CC(=O)O)NC(=O)[C@H](Cc3cnc[nH]3)NC(=O)[C@@H](Cc3ccccc3)NC(=O)[C@H]([C@@H](C)CC)NC(=O)[C@@H](CCCN)NC2=O)[C@@H](C)CC)CS1 [Bacitracin] ({Ileψ(thiazoline)Cys}-L[dE]IK[dOrn]I[dF]H[dD]N; lactam 4-C) 0
CCC(NC(C)C)C(O)c1ccc(O)c(O)c1 (centres undefined) [Isoetharine mesylate salt] 0
CCc1cccc(CC)c1NC(=O)CN(CC(=O)O)CC(=O)O [Etifenin] 0
N=C(N)NS(=O)(=O)c1ccc(N)cc1 [Sulfaguanidine] 0
COc1ccc2c(c1)N(C[C@H](C)CN(C)C)c1ccccc1S2 [Methotrimeprazine maleat salt] 0

Arranged by heavy-atom count (smallest number first): 3 of the compounds above
Dopaminergic neuron differentiation score, inactive:
CCC(NC(C)C)C(O)c1ccc(O)c(O)c1 (centres undefined) [Isoetharine mesylate salt] 0
CCN(CC)Cc1cc(Nc2ccnc3cc(Cl)ccc23)ccc1O [Amodiaquin dihydrochloride dihydrate] 0
CC(=O)O[C@H]1C(=O)[C@@]2(C)[C@H]([C@H](OC(=O)c3ccccc3)[C@]3(O)C[C@H](OC(=O)[C@H](O)[C@@H](NC(=O)c4ccccc4)c4ccccc4)C(C)=C1C3(C)C)[C@]1(OC(C)=O)CO[C@@H]1C[C@@H]2O [Paclitaxel] 0
